The supplement of paper PMC10849652
The other results are listed elsewhere or left out. Residues, ends and D or L forms follow the SMILES beside them. *: point of attachment. Cbz = O=C(OCc1ccccc1)*

Sequences of proteins named here, by UniProt entry; tags and fusion partners are left off. A change or cut given only in a name is not applied to a line headed by its entry.
UniProt Q9NY33: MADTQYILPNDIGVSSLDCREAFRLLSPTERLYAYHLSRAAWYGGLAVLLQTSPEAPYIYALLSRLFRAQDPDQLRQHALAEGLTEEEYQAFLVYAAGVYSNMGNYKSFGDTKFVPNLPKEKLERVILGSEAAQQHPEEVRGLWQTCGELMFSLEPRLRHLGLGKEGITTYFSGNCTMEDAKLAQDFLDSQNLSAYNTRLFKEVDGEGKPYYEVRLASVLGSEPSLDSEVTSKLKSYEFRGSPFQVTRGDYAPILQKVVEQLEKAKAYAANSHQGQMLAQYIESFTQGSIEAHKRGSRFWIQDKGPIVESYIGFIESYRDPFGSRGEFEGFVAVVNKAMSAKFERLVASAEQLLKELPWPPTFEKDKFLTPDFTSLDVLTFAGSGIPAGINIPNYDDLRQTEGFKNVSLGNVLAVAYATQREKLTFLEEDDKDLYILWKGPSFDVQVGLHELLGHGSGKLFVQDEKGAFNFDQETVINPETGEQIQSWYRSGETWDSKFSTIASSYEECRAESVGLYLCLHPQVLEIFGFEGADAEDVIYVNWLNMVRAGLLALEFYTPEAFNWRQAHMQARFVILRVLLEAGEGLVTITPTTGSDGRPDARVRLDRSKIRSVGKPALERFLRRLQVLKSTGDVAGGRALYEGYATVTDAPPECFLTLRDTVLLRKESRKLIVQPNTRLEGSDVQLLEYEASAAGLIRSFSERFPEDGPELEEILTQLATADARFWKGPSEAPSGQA
UniProt O75521: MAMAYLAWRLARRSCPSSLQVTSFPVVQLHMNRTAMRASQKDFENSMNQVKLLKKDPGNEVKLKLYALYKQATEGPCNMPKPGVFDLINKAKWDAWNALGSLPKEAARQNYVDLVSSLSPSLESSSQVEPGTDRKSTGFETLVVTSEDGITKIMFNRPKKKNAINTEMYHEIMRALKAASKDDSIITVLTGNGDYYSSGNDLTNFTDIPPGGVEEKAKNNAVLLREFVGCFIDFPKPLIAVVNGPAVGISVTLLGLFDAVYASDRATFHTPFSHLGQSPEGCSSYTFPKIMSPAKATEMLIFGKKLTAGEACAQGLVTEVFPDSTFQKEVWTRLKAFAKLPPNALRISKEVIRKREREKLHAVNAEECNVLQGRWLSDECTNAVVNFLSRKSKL
UniProt Q9BZ29: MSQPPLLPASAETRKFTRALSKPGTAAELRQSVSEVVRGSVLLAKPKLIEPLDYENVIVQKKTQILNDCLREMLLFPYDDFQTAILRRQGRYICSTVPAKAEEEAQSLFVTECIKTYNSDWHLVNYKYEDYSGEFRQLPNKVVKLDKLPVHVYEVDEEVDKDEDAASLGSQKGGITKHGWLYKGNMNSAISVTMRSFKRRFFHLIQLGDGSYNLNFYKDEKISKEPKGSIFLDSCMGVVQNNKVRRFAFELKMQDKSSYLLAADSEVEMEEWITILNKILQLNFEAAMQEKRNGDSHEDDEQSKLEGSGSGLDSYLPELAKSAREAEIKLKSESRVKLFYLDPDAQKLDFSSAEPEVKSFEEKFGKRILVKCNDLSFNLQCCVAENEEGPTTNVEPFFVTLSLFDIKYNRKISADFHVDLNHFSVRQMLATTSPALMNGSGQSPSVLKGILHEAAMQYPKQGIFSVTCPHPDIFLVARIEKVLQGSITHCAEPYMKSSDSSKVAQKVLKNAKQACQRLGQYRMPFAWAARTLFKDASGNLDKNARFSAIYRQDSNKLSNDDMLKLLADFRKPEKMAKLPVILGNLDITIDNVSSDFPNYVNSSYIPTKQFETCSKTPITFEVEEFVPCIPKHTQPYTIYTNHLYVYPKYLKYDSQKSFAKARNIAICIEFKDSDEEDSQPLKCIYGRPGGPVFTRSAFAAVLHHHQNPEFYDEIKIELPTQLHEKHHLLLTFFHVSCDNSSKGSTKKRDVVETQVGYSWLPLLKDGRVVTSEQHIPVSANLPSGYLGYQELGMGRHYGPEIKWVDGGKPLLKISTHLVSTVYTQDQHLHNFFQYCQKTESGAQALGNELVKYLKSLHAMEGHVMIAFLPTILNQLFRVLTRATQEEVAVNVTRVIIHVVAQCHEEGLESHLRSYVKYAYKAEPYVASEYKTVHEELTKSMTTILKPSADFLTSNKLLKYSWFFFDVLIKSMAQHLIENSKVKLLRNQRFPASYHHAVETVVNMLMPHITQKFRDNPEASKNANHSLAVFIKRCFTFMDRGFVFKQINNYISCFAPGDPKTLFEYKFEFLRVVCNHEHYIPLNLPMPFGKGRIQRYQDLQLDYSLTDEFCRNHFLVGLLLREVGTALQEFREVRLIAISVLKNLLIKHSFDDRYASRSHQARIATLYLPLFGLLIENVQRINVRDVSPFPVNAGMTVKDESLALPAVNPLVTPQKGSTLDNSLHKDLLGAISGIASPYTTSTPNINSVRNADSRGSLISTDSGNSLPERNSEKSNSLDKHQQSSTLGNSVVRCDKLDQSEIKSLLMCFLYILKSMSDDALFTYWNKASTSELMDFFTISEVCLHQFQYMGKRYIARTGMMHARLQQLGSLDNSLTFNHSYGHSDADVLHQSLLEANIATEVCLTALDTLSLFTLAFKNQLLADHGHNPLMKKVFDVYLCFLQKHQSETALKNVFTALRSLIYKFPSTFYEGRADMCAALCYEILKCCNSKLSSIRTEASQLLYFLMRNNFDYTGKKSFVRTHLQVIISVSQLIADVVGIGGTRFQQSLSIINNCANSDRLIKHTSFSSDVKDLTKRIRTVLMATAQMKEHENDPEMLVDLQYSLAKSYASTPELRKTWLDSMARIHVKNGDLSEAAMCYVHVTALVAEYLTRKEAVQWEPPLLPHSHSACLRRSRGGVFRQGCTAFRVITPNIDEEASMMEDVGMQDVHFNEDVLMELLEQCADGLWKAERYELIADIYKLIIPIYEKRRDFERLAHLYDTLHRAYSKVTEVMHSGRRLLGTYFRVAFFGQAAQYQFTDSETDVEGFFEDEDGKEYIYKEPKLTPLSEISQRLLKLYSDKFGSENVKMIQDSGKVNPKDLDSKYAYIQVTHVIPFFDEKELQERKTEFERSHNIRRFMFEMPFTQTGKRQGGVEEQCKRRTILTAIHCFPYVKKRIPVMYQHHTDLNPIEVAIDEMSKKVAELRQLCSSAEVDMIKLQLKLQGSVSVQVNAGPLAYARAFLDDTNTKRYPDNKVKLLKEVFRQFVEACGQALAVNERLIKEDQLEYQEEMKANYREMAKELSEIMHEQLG
UniProt P63167, whole entry, looked up: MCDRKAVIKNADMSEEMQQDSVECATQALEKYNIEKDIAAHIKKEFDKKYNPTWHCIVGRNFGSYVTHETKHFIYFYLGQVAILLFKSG
UniProt Q9BQC3: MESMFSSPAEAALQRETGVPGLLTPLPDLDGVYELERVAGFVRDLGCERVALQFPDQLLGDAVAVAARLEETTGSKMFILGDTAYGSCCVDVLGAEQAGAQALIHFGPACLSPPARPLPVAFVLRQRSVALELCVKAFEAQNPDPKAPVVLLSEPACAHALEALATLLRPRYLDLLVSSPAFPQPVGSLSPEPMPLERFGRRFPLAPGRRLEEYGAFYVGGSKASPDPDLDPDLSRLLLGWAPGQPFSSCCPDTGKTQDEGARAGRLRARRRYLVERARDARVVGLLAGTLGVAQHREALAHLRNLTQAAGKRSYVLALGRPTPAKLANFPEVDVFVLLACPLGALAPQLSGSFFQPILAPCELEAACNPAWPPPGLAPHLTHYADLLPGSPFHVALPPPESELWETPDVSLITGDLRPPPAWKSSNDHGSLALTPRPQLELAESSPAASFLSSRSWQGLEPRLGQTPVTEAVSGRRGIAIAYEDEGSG
UniProt Q9NVM6: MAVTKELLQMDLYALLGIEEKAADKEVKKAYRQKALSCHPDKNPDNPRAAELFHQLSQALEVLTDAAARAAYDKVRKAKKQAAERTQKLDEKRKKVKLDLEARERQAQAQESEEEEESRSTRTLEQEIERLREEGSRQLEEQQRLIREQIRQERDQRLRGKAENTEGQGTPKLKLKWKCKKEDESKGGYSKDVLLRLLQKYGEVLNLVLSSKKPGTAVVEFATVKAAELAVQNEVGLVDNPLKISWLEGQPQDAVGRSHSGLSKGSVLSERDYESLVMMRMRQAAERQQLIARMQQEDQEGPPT
UniProt Q15125: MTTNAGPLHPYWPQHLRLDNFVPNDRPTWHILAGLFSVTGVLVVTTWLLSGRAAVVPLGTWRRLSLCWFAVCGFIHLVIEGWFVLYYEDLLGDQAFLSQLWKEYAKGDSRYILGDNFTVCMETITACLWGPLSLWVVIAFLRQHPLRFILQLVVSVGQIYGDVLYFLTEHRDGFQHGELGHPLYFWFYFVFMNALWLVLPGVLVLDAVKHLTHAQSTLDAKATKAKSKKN
UniProt P51452: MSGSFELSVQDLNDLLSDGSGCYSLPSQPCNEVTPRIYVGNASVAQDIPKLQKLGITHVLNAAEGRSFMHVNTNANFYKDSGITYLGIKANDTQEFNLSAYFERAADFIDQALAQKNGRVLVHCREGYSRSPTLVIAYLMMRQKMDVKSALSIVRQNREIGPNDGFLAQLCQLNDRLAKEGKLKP
UniProt Q5JSL3: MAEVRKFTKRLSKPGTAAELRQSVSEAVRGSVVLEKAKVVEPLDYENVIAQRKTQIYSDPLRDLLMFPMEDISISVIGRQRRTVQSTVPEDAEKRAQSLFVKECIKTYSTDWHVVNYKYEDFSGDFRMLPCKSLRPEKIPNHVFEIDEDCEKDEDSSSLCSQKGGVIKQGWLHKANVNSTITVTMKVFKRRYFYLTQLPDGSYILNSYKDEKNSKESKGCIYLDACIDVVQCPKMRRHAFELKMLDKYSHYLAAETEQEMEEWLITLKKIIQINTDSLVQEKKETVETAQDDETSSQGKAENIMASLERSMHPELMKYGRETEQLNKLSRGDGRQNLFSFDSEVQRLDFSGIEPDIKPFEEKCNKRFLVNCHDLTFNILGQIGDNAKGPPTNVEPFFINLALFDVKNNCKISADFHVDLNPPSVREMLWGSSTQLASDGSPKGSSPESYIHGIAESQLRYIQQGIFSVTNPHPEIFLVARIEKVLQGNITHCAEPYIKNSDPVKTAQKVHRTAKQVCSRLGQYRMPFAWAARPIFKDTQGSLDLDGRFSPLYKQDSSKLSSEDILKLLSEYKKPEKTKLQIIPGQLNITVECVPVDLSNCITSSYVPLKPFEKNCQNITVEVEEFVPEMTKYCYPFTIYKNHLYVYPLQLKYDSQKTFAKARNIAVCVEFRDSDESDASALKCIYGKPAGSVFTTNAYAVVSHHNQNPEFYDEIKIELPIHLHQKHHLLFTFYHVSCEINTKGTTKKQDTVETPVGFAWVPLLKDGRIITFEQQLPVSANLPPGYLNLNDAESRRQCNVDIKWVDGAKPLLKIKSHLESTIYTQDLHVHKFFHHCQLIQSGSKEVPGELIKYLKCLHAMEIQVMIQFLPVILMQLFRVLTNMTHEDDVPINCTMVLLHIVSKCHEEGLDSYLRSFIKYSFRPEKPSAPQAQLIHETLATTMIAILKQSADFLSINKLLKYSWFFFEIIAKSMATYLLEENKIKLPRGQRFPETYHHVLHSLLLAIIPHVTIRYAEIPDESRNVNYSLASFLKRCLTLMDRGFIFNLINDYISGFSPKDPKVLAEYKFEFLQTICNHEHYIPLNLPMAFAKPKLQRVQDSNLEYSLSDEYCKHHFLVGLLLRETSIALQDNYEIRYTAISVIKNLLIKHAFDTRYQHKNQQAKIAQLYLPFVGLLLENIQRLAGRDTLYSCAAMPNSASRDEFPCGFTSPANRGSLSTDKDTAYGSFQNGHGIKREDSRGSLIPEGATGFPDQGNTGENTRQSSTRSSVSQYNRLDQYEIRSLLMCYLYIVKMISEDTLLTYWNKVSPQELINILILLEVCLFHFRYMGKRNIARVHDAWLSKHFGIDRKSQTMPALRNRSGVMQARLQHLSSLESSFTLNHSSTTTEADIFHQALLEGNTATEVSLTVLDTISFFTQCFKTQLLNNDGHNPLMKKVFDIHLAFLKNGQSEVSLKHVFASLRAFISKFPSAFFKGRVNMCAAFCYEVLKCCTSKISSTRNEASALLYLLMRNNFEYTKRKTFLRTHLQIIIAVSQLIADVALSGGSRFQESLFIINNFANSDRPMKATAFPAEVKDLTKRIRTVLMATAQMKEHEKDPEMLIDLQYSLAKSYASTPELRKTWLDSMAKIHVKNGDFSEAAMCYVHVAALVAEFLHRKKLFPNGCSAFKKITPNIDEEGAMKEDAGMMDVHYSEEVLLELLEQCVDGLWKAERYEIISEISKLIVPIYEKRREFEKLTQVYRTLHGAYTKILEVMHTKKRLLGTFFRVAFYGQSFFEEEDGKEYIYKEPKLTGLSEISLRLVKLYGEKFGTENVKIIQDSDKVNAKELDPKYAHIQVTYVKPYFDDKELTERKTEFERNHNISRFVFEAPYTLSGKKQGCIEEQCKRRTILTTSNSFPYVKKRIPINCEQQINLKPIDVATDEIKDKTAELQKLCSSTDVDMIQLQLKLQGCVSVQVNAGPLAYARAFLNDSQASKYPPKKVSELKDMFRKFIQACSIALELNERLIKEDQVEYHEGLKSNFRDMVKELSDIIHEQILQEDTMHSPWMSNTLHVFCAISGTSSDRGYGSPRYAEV

Key:
Experiment in all cases: log2 fold change, soluble protein after heating vs DMSO (PISA); higher = thermal stabilisation; K562 cells, 10 uM, 30 min; active = over 0.2 and 3.5 SD of the protein, either way, in both replicates (recomputed)
IRAK-1-4 Inhibitor I = compound: C1COCCN1CCN2C3=CC=CC=C3N=C2NC(=O)C4=CC(=CC=C4)[N+](=O)[O-] [IRAK-1-4 Inhibitor I]
In short: (§1)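 Quantification of soluble protein used TMTpro 16plex LC-MS/MS, with channel sums equalised. Samples were the supernatant after 21,000xg for 90 min of pooled aliquots from K562 cells (2×10^6 cells/mL) treated with 10 μM compound for 30 min, heated for 3 min over 48°C-58°C, and extracted in PBS with 0.5% NP-40 at 4°C. Values, from duplicates, describe thermal stability against control samples on a log2 fold-change scale.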

ibrutinib = compound: C=CC(=O)N1CCC[C@@H](n2nc(-c3ccc(Oc4ccccc4)cc3)c3c(N)ncnc32)C1 [ibrutinib]
In short: as §1

[1] = compound: CC(=O)c1cnc2ccc(-c3cc(Cl)c(O)c(Cl)c3)nc2c1N[C@H]1CC[C@H](CN(C)C)CC1
In short: as §1

ralimetinib = compound: CC(C)(C)Cn1c(N)nc2ccc(-c3[nH]c(C(C)(C)C)nc3-c3ccc(F)cc3)nc21 [ralimetinib]
In short: as §1

[2] = compound: CC(C)(O)CC(=O)NCCn1ccc2ncnc(Nc3ccc(Oc4cccc(C(F)(F)F)c4)c(Cl)c3)c21
In short: as §1

[3] = compound: CC(C)C1=C2N=C(C=C(N2N=C1)NCC3=CC=CC=C3)NCCCCCCN
In short: as §1

[4] = compound: CC(C)C[C@@H](C=O)NC(=O)[C@H](CC(C)C)NC(=O)[C@H](CC(C)C)NC(=O)OCc1ccccc1
In short: as §1

pinometostat = compound: CC(C)N(C[C@H]1O[C@@H](n2cnc3c(N)ncnc32)[C@H](O)[C@@H]1O)[C@H]1C[C@@H](CCc2nc3cc(C(C)(C)C)ccc3[nH]2)C1 [pinometostat]
In short: as §1

[5] = compound: CC1=C(C(CC(=O)N1)C2=CC=C(C=C2)C(F)(F)F)C(=O)NC3=C(C=C4C(=C3)C=NN4)F
In short: as §1

[6] = compound: CC1=C(C2=C(C=C1)C(=O)C3=CC=CC=C3N2CCCN)C
In short: as §1

[7] = compound: CC1=C(C=C(C=C1)NC(=O)C2=CC(=CC=C2)C(C)(C)C#N)NC3=CC4=C(C=C3)N=CN(C4=O)C
In short: as §1

[8] = compound: CC1=C(C=C(C=C1)NC(=O)C2=CC(=CC=C2)N(C)C)NC(=O)C3=CC=C(C=C3)O
In short: as §1

[9] = compound: CC1=CC=C(C=C1)SC2=C3C=C(SC3=CN=C2)C(=O)N
In short: as §1

[10] = compound: CC1=NC(=CC=C1)C2=C(N=C(N2)C(C)(C)C)C3=CC4=NC=CN=C4C=C3
In short: as §1

Nexturastat A = compound: CCCCN(Cc1ccc(C(=O)NO)cc1)C(=O)Nc1ccccc1 [Nexturastat A]
In short: as §1

vemurafenib = compound: CCCS(=O)(=O)Nc1ccc(F)c(C(=O)c2c[nH]c3ncc(-c4ccc(Cl)cc4)cc23)c1F [vemurafenib]
In short: as §1

[11] = compound: CCCS(=O)(=O)Nc1ccc(F)c(C(=O)c2c[nH]c3ncc(Cl)cc23)c1F
In short: as §1

[12] = compound: CCCc1cc(C)[nH]c(=O)c1CNC(=O)c1cc(-c2ccnc(N3CCN(C)CC3)c2)cc2c1cnn2C(C)C
In short: as §1

givinostat = compound: CCN(CC)Cc1ccc2cc(COC(=O)Nc3ccc(C(=O)NO)cc3)ccc2c1 [givinostat]
In short: as §1

barasertib = compound: CCN(CCCOc1ccc2c(Nc3cc(CC(=O)Nc4cccc(F)c4)[nH]n3)ncnc2c1)CCOP(=O)(O)O [barasertib]
In short: as §1

Measured: log2 fold change

DUT (UniProt P33316)
inactive: IRAK-1-4 Inhibitor I 0.029 | ibrutinib 0.004 | [1] -0.029 | ralimetinib -0.102 | [2] -0.095 | [3] 0.021 | [4] 0.001 | pinometostat -0.012 | [5] 0.083 | [6] 0.014 | [7] -0.031 | [8] -0.019 | [9] 0.038 | [10] 0.055 | Nexturastat A -0.103 | vemurafenib -0.029 | [11] -0.003 | [12] -0.02 | givinostat -0.001 | barasertib -0.005

EDF1 (UniProt O60869)
inactive: IRAK-1-4 Inhibitor I 0.009 | ibrutinib 0.001 | [1] 0.029 | ralimetinib -0.09 | [2] 0.084 | [3] 0.066 | [4] -0.035 | pinometostat -0.072 | [5] -0.014 | [6] 0.003 | [7] 0.002 | [8] -0.018 | [9] 0.002 | [10] 0.039 | Nexturastat A -0.076 | vemurafenib -0.01 | [11] -0.049 | [12] 0.096 | givinostat 0.002 | barasertib 0.012

DPP3 (UniProt Q9NY33)
inactive: IRAK-1-4 Inhibitor I 0.039 | ibrutinib -0.014 | [1] -0.035 | ralimetinib -0.008 | [2] -0.042 | [3] -0.145 | [4] -0.039 | pinometostat -0.024 | [5] -0.005 | [6] 0.066 | [7] -0.005 | [8] 0 | [9] -0.014 | [10] 0.005 | Nexturastat A -0.052 | vemurafenib -0.002 | [11] 0.02 | [12] -0.047 | givinostat 0.025 | barasertib 0.043

ECI2 (UniProt O75521)
inactive: IRAK-1-4 Inhibitor I 0.056 | ibrutinib -0.021 | [1] -0.025 | ralimetinib -0.051 | [2] -0.028 | [3] 0.07 | [4] -0.045 | pinometostat -0.019 | [5] -0.028 | [6] 0.03 | [7] -0.015 | [8] -0.026 | [9] 0.01 | [10] 0.014 | Nexturastat A -0.006 | vemurafenib -0.01 | [11] -0.01 | [12] 0 | givinostat 0.022 | barasertib 0.021

DOCK9 isoform 4 (UniProt Q9BZ29)
inactive: IRAK-1-4 Inhibitor I 0.052 | ibrutinib -0.019 | [1] 0.043 | ralimetinib 0.058 | [2] -0.068 | [3] -0.006 | [4] 0.147 | pinometostat 0.006 | [5] -0.021 | [6] -0.122 | [7] 0.026 | [8] -0.051 | [9] 0.017 | [10] 0.003 | Nexturastat A -0.058 | vemurafenib -0.063 | [11] 0.037 | [12] -0.009 | givinostat -0.135 | barasertib 0.002

EDEM3 (UniProt Q9BZQ6)
inactive: IRAK-1-4 Inhibitor I -0.057 | ibrutinib -0.032 | [1] 0.028 | ralimetinib 0.036 | [2] 0.031 | [3] -0.055 | [4] -0.015 | pinometostat 0.03 | [5] 0.041 | [6] 0.034 | [7] -0.009 | [8] 0.029 | [9] -0.042 | [10] -0.067 | Nexturastat A 0.076 | vemurafenib -0.098 | [11] -0.077 | [12] 0.024 | givinostat 0.009 | barasertib -0.01

DYNLL1 (UniProt P63167)
inactive: IRAK-1-4 Inhibitor I 0.024 | ibrutinib -0.005 | [1] -0.043 | ralimetinib -0.083 | [2] 0.004 | [3] 0.031 | [4] -0.051 | pinometostat -0.018 | [5] -0.094 | [6] 0.072 | [7] 0.008 | [8] -0.112 | [9] 0.013 | [10] 0.089 | Nexturastat A -0.012 | vemurafenib 0.021 | [11] 0.008 | [12] -0.15 | givinostat -0.009 | barasertib 0.044

DPH2 (UniProt Q9BQC3)
inactive: IRAK-1-4 Inhibitor I 0.006 | ibrutinib -0.031 | [1] -0.082 | ralimetinib 0.038 | [2] -0.027 | [3] 0.04 | [4] 0.045 | pinometostat 0.011 | [5] 0.064 | [6] 0.01 | [7] -0.001 | [8] 0.031 | [9] 0.008 | [10] 0.037 | Nexturastat A -0.059 | vemurafenib -0.019 | [11] -0.049 | [12] 0.03 | givinostat -0.207 | barasertib 0.057

DNAJC8 (UniProt O75937)
inactive: IRAK-1-4 Inhibitor I -0.01 | ibrutinib -0.03 | [1] -0.031 | ralimetinib -0.025 | [2] -0.012 | [3] 0.005 | [4] 0.006 | pinometostat -0.028 | [5] 0.001 | [6] 0.006 | [7] 0 | [8] -0.005 | [9] 0.004 | [10] 0.084 | Nexturastat A -0.133 | vemurafenib 0.035 | [11] 0.004 | [12] -0.022 | givinostat -0.043 | barasertib 0.04

DNAJC17 (UniProt Q9NVM6)
inactive: IRAK-1-4 Inhibitor I -0.002 | ibrutinib -0.036 | [1] -0.009 | ralimetinib -0.007 | [2] 0 | [3] 0.07 | [4] -0.019 | pinometostat -0.025 | [5] -0.033 | [6] 0.061 | [7] -0.072 | [8] -0.069 | [9] -0.035 | [10] 0.06 | Nexturastat A -0.094 | vemurafenib -0.034 | [11] -0.179 | [12] 0.013 | givinostat 0.012 | barasertib 0.041

EBP (UniProt Q15125)
inactive: IRAK-1-4 Inhibitor I -0.072 | ibrutinib 0.007 | [1] -0.284 | ralimetinib -0.027 | [2] -0.007 | [3] 0.004 | [4] -0.063 | pinometostat 0.033 | [5] -0.056 | [6] 0.028 | [7] 0.111 | [8] -0.056 | [9] 0.049 | [10] 0.007 | Nexturastat A -0.067 | vemurafenib -0.026 | [11] -0.003 | [12] -0.09 | givinostat 0.01 | barasertib 0.015

DST (UniProt Q03001)
inactive: IRAK-1-4 Inhibitor I -0.016 | ibrutinib 0.281 | [1] -0.01 | ralimetinib 0.185 | [2] 0.05 | [3] 0.011 | [4] 0.062 | pinometostat 0.123 | [5] 0.047 | [6] 0.011 | [7] -0.142 | [8] 0.02 | [9] -0.048 | [10] -0.097 | Nexturastat A -0.007 | vemurafenib -0.043 | [11] -0.052 | [12] -0.378 | givinostat 0.207 | barasertib 0.025

DUSP3 (UniProt P51452)
inactive: IRAK-1-4 Inhibitor I 0.021 | ibrutinib -0.088 | [1] -0.057 | ralimetinib -0.014 | [2] 0.029 | [3] 0.084 | [4] 0.022 | pinometostat 0.056 | [5] -0.109 | [6] 0.056 | [7] 0.087 | [8] -0.023 | [9] -0.027 | [10] 0.007 | Nexturastat A -0.053 | vemurafenib 0.042 | [11] 0.022 | [12] -0.022 | givinostat 0.037 | barasertib 0.098

DNMT1 isoform 2 (UniProt P26358)
inactive: IRAK-1-4 Inhibitor I 0.014 | ibrutinib -0.009 | [1] -0.012 | ralimetinib 0.004 | [2] 0 | [3] 0.043 | [4] -0.001 | pinometostat -0.013 | [5] -0.032 | [6] 0.113 | [7] 0.011 | [8] -0.016 | [9] 0.007 | [10] 0.044 | Nexturastat A 0.007 | vemurafenib 0.008 | [11] 0.021 | [12] -0.01 | givinostat -0.025 | barasertib 0.005

DOCK11 (UniProt Q5JSL3)
inactive: IRAK-1-4 Inhibitor I -0.04 | ibrutinib -0.002 | [1] 0.025 | ralimetinib -0.021 | [2] -0.038 | [3] -0.072 | [4] 0.031 | pinometostat 0.099 | [5] 0.021 | [6] 0.025 | [7] 0.009 | [8] -0.074 | [9] -0.002 | [10] 0.016 | Nexturastat A 0.065 | vemurafenib 0.013 | [11] 0.03 | [12] -0.015 | givinostat 0.043 | barasertib 0.028

Retrieved one by one from the entries so far (2):
DNAJC17 (UniProt Q9NVM6)
inactive: IRAK-1-4 Inhibitor I -0.002 | ibrutinib -0.036 | [1] -0.009 | ralimetinib -0.007 | [2] 0 | [3] 0.07 | [4] -0.019 | pinometostat -0.025 | [5] -0.033 | [6] 0.061 | [7] -0.072 | [8] -0.069 | [9] -0.035 | [10] 0.06 | Nexturastat A -0.094 | vemurafenib -0.034 | [11] -0.179 | [12] 0.013 | givinostat 0.012 | barasertib 0.041

DPP3 (UniProt Q9NY33)
inactive: IRAK-1-4 Inhibitor I 0.039 | ibrutinib -0.014 | [1] -0.035 | ralimetinib -0.008 | [2] -0.042 | [3] -0.145 | [4] -0.039 | pinometostat -0.024 | [5] -0.005 | [6] 0.066 | [7] -0.005 | [8] 0 | [9] -0.014 | [10] 0.005 | Nexturastat A -0.052 | vemurafenib -0.002 | [11] 0.02 | [12] -0.047 | givinostat 0.025 | barasertib 0.043

The list goes on:

DNAJC5 (UniProt Q9H3Z4)
inactive: IRAK-1-4 Inhibitor I -0.002 | ibrutinib 0.097 | [1] -0.098 | ralimetinib -0.082 | [2] 0.069 | [3] 0.137 | [4] 0.022 | pinometostat -0.024 | [5] -0.047 | [6] -0.062 | [7] -0.066 | [8] 0.017 | [9] -0.089 | [10] -0.027 | Nexturastat A 0.013 | vemurafenib 0.008 | [11] -0.101 | [12] -0.075 | givinostat -0.026 | barasertib 0.021
